Results reported in PubChem BioAssay AID624297 (National Center for Advancing Translational Sciences (NCATS), 2012).
Where “and” joins values, the source holds several entries; their conditions need not be identical. Identical values can stand only once. The campaign covered roughly 340,000 compounds. About 6,200 (1.8%) were called active. Inconclusive results, whose numbers are uncertain, are shown with a selection of clear calls. Calls come from the whole dose curve; as a rule, active = well fitted activation curve with a large enough effect; inconclusive = small, poorly fitted or top-dose-only effect; inactive = no such curve, though single readings can be large or run the other way. A potency beside an inconclusive call is a rough fit, not a confirmed value.
Potency is the fitted concentration of half-maximal effect.

Assay: A quantitative high throughput screen for small molecules that induce DNA re-replication in SW480 colon adenocarcinoma cells. For re-replication activation: % of control where 0% means no effect. Note: nearly all actives have a fitted effect of over 55% in size.
Conditions: Hoechst DNA content imaging, 48 h; re-replication activation: at 46.1 µM (top of the series)
Summary of the method: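 First, 250 cells per well were seeded. Next, compound or vehicle (23 nL) was pinned in, plates sat 48 hr at 37 C. Finally Hoechst was added for 40 min before fluorescence scanning.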
For `CN1CCc2c(sc(NC(=O)C3COc4ccccc4O3)c2C(N)=O)C1` (configuration not stated), the Potency was inconclusive: 29.1 µM [activator, single point].
With `COCCCNCCCCOc1ccc(Br)cc1C` the Potency was inconclusive: 29.1 µM [activator, single point].
In the case of `O=C(CC1CCOCC1)Nc1ccc(Cl)c(Cl)c1`, the re-replication activation is reported as inactive: 2.42% [at 1.84 µM].
In the case of `COc1ccc(C2=NN(c3ccc(C(=O)O)cc3)C(c3ccc(OC)c(OC)c3)C2)cc1` (configuration not stated), the Potency is reported as active: 18.4 µM.
In the case of `CC(C)N1C(=O)S/C(=C/c2ccc(Sc3nc4ccccc4[nH]3)o2)C1=O`, the Potency is reported as inconclusive: 22.4 µM [activator, single point].
With `O=C(CCCNC(=O)c1ccc(Cl)cc1)Nc1nccs1` the Potency was “inactive”.
For `Cc1n[nH]c(C)c1S(=O)(=O)N(CC(=O)N1CCc2ccccc21)c1ccc(C(C)C)cc1`, the Potency was inconclusive: 23.1 µM [activator, single point].
With `COc1ccccc1C=NN=C(NN=Cc1ccccc1OC)NN=Cc1ccccc1OC` the Potency was inconclusive: 23.1 µM [activator, partial curve, poor fit].
With `CCOC(=O)c1c(C)[nH]c(C2=NNC(=Nc3ccccc3OC)SC2)c1C` the Potency was inconclusive: 29.1 µM [activator, single point].
With `CC(C)OCCCNC(=S)NNC(=O)c1ccc(Cl)c(Cl)c1` the Potency was inconclusive: 0.146 µM [activator, full curve, poor fit].
With `CS(=O)(=O)Nc1ccc(C(=O)Nc2ccc(S(=O)(=O)N3CCCC3)cc2)cc1` the Potency was inconclusive: 29.1 µM [activator, single point].
With `Cc1ccc(NC(=O)c2sc3nc4c(c(-c5ccco5)c3c2N)CCC4)cc1` the Potency was “inactive”.
For `COc1cc(/C=N/NC(=O)CCN2CCN(C(c3ccccc3)c3ccccc3)CC2)ccc1O`, the Potency was inconclusive: 29.1 µM [activator, single point].
For `O=C(Nc1ncnc2sc3c(c12)CCCCC3)c1ccco1`, the Potency was inconclusive: 3.66 µM [activator, full curve, poor fit].
For `C=C1CC[C@@H]2[C@](C)(CCC[C@@]2(C)/C=C/[C@@H](O)C(C)(C)O)[C@H]1CC(=O)NCCS(=O)(=O)O`, the Potency was inconclusive: 2.91 µM [activator, partial curve, poor fit].
With `Cc1onc(-c2ccccc2)c1-c1ccnc(N)n1` the Potency was “inactive”.
With `CCOc1ccc(N/C(SCc2cccc([N+](=O)[O-])c2)=C(/C#N)C(N)=O)cc1` the Potency was “inactive”.
For `Cc1ccc(Cl)cc1S(=O)(=O)N1CCC(C(=O)NC2CCN(Cc3ccccc3)CC2)CC1`, the Potency was inconclusive: 29.1 µM [activator, single point].
For `Cc1ccccc1OCc1nc(-c2ccc(NC(=O)c3ccc4c(c3)OCO4)cc2)no1`, the Potency was inconclusive: 18.4 µM [activator, single point].
In the case of `CCC(CC)COC(=O)C(C#N)c1nc2ccccc2nc1N1CCN(CC)CC1` (configuration not stated), the Potency is reported as inconclusive: 16.4 µM [activator, single point].
With `O=C(Nc1ccc(F)cc1F)c1ccc(-n2cccn2)c([N+](=O)[O-])c1` the Potency was inconclusive: 3.66 µM [activator, partial curve, poor fit].
In the case of `N#Cc1ccc(C(=O)NCC2CCCCC2)cc1`, the Potency is reported as inconclusive: 0.517 µM [activator, full curve, poor fit].
With `CC(C)Cc1nc(N2CCCCC2)c(C#N)c2c1CCC2` the Potency was “inactive”.
With `COc1cccc(CNC(=O)Cc2ccc(-n3c(=O)[nH]c4ccccc4c3=O)cc2)c1` the Potency was inconclusive: 29.1 µM [activator, single point].
For `O=C(NC1CCCCC1)C1CCCN(S(=O)(=O)c2ccc(Br)s2)C1` (configuration not stated), the Potency was inconclusive: 29.1 µM [activator, single point].
For `Cc1ccc(CC(=O)Nc2cc(C)ccn2)cc1`, the Potency was inconclusive: 20.6 µM [activator, single point].
In the case of `O=C(O)CNC(=O)c1ccc(NS(=O)(=O)c2ccc3ccccc3c2)cc1`, the Potency is reported as inconclusive: 0.164 µM [activator, full curve, poor fit].
With `CC1=C(CC(=O)c2ccccc2)C(=O)c2ccccc2C1=O` the Potency was inconclusive: 20.6 µM [activator, single point].
In the case of `CC(C)n1c2ccccc2c2nc3ccccc3nc21`, the Potency is reported as inconclusive: 29.1 µM [activator, single point].
For `Cc1noc(C(=O)Nc2cccc(O)c2)c1Cl`, the Potency was inconclusive: 23.1 µM [activator, single point].
For `O=C(Nc1nc2ccccc2[nH]1)c1ccc(S(=O)(=O)N2CCOCC2)cc1`, the Potency was “inactive”.
With `CC(=O)OC1CCC2C3CCc4cc(O)ccc4C3CCC12C` (configuration not stated) the Potency was “inactive and inconclusive: 184 nM [activator, single point]”.
In the case of `Cc1cc(-c2ccc(N3CCOCC3)cc2)nc2ccccc12`, the Potency is reported as inconclusive: 14.6 µM [activator, partial curve, poor fit].
In the case of `Cc1cccc(N2CC(C(=O)Nc3nnc(SCc4cccnc4)s3)CC2=O)c1` (configuration not stated), the Potency is reported as “inactive”.
In the case of `Cc1ccc(S(=O)(=O)N2CCN(C(=O)COC(=O)CNC(=O)c3ccc(C(C)(C)C)cc3)CC2)c(C)c1`, the Potency is reported as “inactive”.
In the case of `CC(=O)c1cccc(Nc2ncnc3ccc(Br)cc23)c1`, the Potency is reported as inconclusive: 18.4 µM [activator, single point].
For `O=C(/C=C/c1ccc(F)cc1)NC(=S)N1CCCCC1c1cccnc1` (configuration not stated), the Potency was inconclusive: 14.6 µM [activator, single point].
In the case of `CCOC(=O)C1CCN(C(=O)COC(=O)COc2ccc(Cl)cc2)CC1`, the Potency is reported as “inactive”.
With `Nc1cc2c(cc1C(=O)c1cccc(Br)c1)OCCO2` the Potency was inconclusive: 20.6 µM [activator, single point].
With `CC1=CC(=NOC(=O)c2cccc([N+](=O)[O-])c2)C=C(C)C1=O` the Potency was inconclusive: 29.1 µM [activator, single point].
For `CC(=O)Nc1ccc(NC(=O)COC(=O)c2c(-c3ccccc3)noc2C)cc1`, the Potency was inconclusive: 23.1 µM [activator, single point].
For `CCOC(=O)Cc1csc(NC(=O)c2ccc(Cl)nc2)n1`, the Potency was inconclusive: 29.1 µM [activator, single point].
In the case of `COc1ccc2nc(Nc3nc4ccc(NC(C)=O)cc4s3)sc2c1`, the Potency is reported as inconclusive: 18.4 µM [activator, single point].
With `O=C(c1ccc(Cl)cc1)N1N=C(c2ccccn2)CC1(O)C(F)(F)F` (configuration not stated) the Potency was inconclusive: 18.4 µM [activator, single point].
With `O=C1c2ccccc2NC(c2ccc(-c3ccc(C(F)(F)F)cc3)o2)N1O` (configuration not stated) the Potency was inconclusive: 6.51 µM [activator, single point].
With `C=C1C(=O)OC2CC1C(O)CC(C)=CCCC(C)=CC(O)CC2C` (configuration not stated) the Potency was inconclusive: 25.9 µM [activator, single point].
With `CC(NC(=O)C(=O)N1CCOCC1)C(c1cccs1)N1CCN(c2ccccc2)CC1` (configuration not stated) the Potency was “inactive”.
For `CC(=O)c1ccc(OC(=O)COc2ccccc2)cc1`, the re-replication activation was inconclusive: 63.5% [activator].
In the case of `COc1cccc(C2CC3(CC(C)(C)NC(=S)N3)Oc3cc(O)ccc32)c1` (configuration not stated), the Potency is reported as inconclusive: 8.2 µM [activator, partial curve, poor fit].
With `COc1ccc(N(C(=O)CNC(=O)c2cccs2)C(C(=O)NCC2CCCO2)c2ccc(OC)c(OC)c2)cc1` (configuration not stated) the Potency was inconclusive: 29.1 µM [activator, single point].
For `CCOc1ccc(OCc2ccc(C(=O)N/N=C(\C)c3ccccn3)cc2)cc1`, the Potency was inconclusive: 4.11 µM [activator, partial curve, poor fit].
For `COc1ccc2c(c1)CCC(C)N2C(=O)C(=O)c1c[nH]c2ccccc12` (configuration not stated), the Potency was inconclusive: 16.4 µM [activator, single point].
With `O=C(CCl)NC(Cc1ccccc1)c1ccccc1` (configuration not stated) the Potency was active: 16.4 µM.
In the case of `COc1ccc(Cn2nnnc2CN2CCc3ccccc32)cc1`, the Potency is reported as active: 23.1 µM.
In the case of `COc1cc[n+]([O-])cc1[N+](=O)[O-]`, the Potency is reported as “inactive”.
With `CCCCCN(C(=O)CCC(=O)OCc1ccccc1C(F)(F)F)c1c(N)n(CCCC)c(=O)[nH]c1=O` the Potency was inconclusive: 18.4 µM [activator, single point].
For `O=C1/C(=C/c2ccc([N+](=O)[O-])cc2)CCC1C1CCCC1` (configuration not stated), the Potency was inconclusive: 16.4 µM [activator, single point].
For `CS/C(N)=N/N=C/c1c(O)ccc2ccccc12`, the Potency was inconclusive: 29.1 µM [activator, single point].
In the case of `COc1ccc(C(=O)CN2CCN(c3ccc(Cl)cc3)CC2)cc1OC`, the Potency is reported as “inactive”.
In the case of `NC(=O)c1cccc(-c2cnc(N)c(C(=O)c3cccnc3)n2)c1`, the Potency is reported as “inactive”.
In the case of `CCOC(=O)C1=C(COC(=O)CCNS(=O)(=O)c2ccc(NC(C)=O)cc2)NC(=O)NC1C` (configuration not stated), the Potency is reported as inconclusive: 0.0065 µM [activator, full curve, poor fit].
For `Cc1nnc(N/N=C/c2ccc(Br)cc2)n1N`, the Potency was inconclusive: 29.1 µM [activator, single point].
For `Cc1ccccc1CN(C)Cc1cc(=O)oc2c(C)c(C)ccc12`, the Potency was inconclusive: 18.4 µM [activator, single point].
In the case of `O=C(NCCC(=O)N(CCc1ccccc1)Cc1ccccc1)c1ccc([N+](=O)[O-])cc1`, the Potency is reported as “inactive”.
In the case of `CCn1c(C(=O)N2CCC(C(=O)N3CCN(c4ccccn4)CC3)CC2)cc2sccc21`, the Potency is reported as “inactive”.
With `O=[N+]([O-])c1ccc(NN=Cc2ccccc2)nc1` the Potency was inconclusive: 25.9 µM [activator, partial curve, poor fit].
In the case of `CCCC(=O)N/C(N)=N/c1nc(C)c2ccccc2n1`, the Potency is reported as inconclusive: 20.6 µM [activator, single point].
